The supplement of paper PMC10338343
± gives the standard deviation. The list shows a part of the results, in another mix than the full data. Many of these values have a large error.

tested on: EfPiwi piRISC loaded with piRNA #1 (26 nt); test: pre-steady-state target cleavage rate (min^-1); guide: piRNA #1 5'p-UGAGGUAGUAGGUUGUAUAGUAUCCA; MIWI and MILI are mouse PIWI proteins and EfPiwi is from a freshwater sponge; tags in brackets are library labels; higher = faster piRNA-guided slicing of the target; settings: auxiliary factor: 500 nM Ephydatia muelleri Gtsf1
Procedure, shortened: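 A burst-and-steady-state fit was used to obtain the pre-steady-state cleavage rate. The input data were sequencing reads of uncleaved targets, normalised to depth and to weakly complementary targets, from a […] transcribed, DNA-blocked target RNA library mixed with 1 nM active affinity-purified piRISC holding one synthetic guide, with or without 500 nM GTSF1 partner protein, in HEPES–potassium acetate buffer at 33 °C for 0–8 or 0–960 min. Three trials were pooled and k3 was capped at 0.0001 min^-1.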

Sequence | pre-steady-state target cleavage rate
GGAGACCUUACUAUACAACCUACUACCUAA | 0.00756 ± 0.0045
GGAGACCUAUGAUAACAACCUACUAGGUCA | 0.000128 ± 0.014
GGAGACCAUACUAUACUACCUACUACGUCA | 0.0039 ± 0.0028
GGAGAGGAUACUAUACAACCAUACUACCUCA | 0.00323 ± 0.0026
GGAGACCUAUGUAUACAACCUACUACCUACA | 0.000875 ± 0.01
GGAGACCUUACUAUACUACCUACAACCUCA | 0.00126 ± 0.0053
GGAGACCUAACUAUAGAACGUACUACCUCA | 0.000345 ± 0.0098
GGAGACCUAUCUAUACAACCUACAACCUGA | 0.00249 ± 0.0057
GGAGACCUAUCUAUACAAGCAACUACCUCA | 0.0018 ± 0.005
GGAGAGGAUACUAUACAUGCUACUACCUCA | 0.0065 ± 0.0032
GGAGAGGAUACAAUACAACCUUCUACCUCA | 0.00307 ± 0.0023
GGAGACGAUACUAUAGAACGUACUACCUCA | 0.00177 ± 0.0015
GGAGACCUAACUAAAGAACCUACUACCUCA | 0.000231 ± 0.014
GGAGACGAUACAAUUCAACCUACUACCUCA | 0.0021 ± 0.0046
GGAGUUGGAUACUAUACAACCUACUACCUCA | 0.197 ± 0.056
GGAGACCUAACUAUACAACCUACUACGCUCA | 0.00453 ± 0.0049
GGAGAGGAUACAUUACAACCUACUACCUCA | 0.007 ± 0.0035
GGAGACCAUACUUUACAACCUACUACCACA | 0.00231 ± 0.0038
GGAGACCUUACUAUACAUCCAACUACCUCA | 0.00298 ± 0.0044
GGAGACCUUACUAUACAACCUACUCACCUCA | 0.00199 ± 0.0063

A section from the list above, for reference:
Sequence | pre-steady-state target cleavage rate
GGAGACCUUACUAUACUACCUACAACCUCA | 0.00126 ± 0.0053
GGAGACCUAACUAUAGAACGUACUACCUCA | 0.000345 ± 0.0098
GGAGACCUAUCUAUACAACCUACAACCUGA | 0.00249 ± 0.0057
GGAGACCUAUCUAUACAAGCAACUACCUCA | 0.0018 ± 0.005
GGAGAGGAUACUAUACAUGCUACUACCUCA | 0.0065 ± 0.0032
GGAGAGGAUACAAUACAACCUUCUACCUCA | 0.00307 ± 0.0023
GGAGACGAUACUAUAGAACGUACUACCUCA | 0.00177 ± 0.0015

(next part)

Sequence | pre-steady-state target cleavage rate
GGAGUGGAUACUAUUCAACCUACAACCUCA | 0.00255 ± 0.0022
GGAGACGAAACAAUACAACCUACUACCUCA | 0.00789 ± 0.0038
GGAGACCAAACUAUACUACCUACUACCUCA | 0.00362 ± 0.0032
GGAGAGGAUACUAUACAACCUACUUGCUCA | 0.00478 ± 0.0023
GGAGAGGAUUCUAUACAACCUUCUACCUCA | 0.00275 ± 0.0034
GGAGACCUUACUAUACAACCAACUACGUCA | 0.00103 ± 0.0039
GGAGUGGAUUCUAUACAACGUACUACCUCA | 0.00313 ± 0.0019
GGAGUGGAUACUAUUGAACCUACUACCUCA | 0.000328 ± 0.0097
GGAGACCUAACUAAUCAACCUACUACCUCA | 0.00211 ± 0.0042
GGAGACCUAUCUUAACAACCUACUACCUCA | 0.0035 ± 0.0043
GGAGACGUUACUAUUCAACCUACUACCUCA | 0.00346 ± 0.0043
GGAGUGGAUACUAUACAACCAACUACCUCA | 0.00568 ± 0.002
GGAGACCUAUCUAUACAACCAACUUCCUCA | 0.00147 ± 0.0058
GGAGACCUAACUAUACUACCUACUACCACA | 0.00219 ± 0.0046
GGAGUGGAUACUAGACAACCUACUACCUCA | 0.226 ± 0.081
GGAGACCUUACUAUACAACCUACAACCACA | 0.00139 ± 0.0079
GGAGACCUAUGUAUACAACCUACUACCCUCA | 0.000886 ± 0.0057
GGAGACCAUACUAUACUACCAACUACCUCA | 0.000462 ± 0.008
GGAGAGGAUACUAAACAAGCUACUACCUCA | 0.00412 ± 0.0017
GGAGACCUUACUAUAGAUCCUACUACCUCA | 0.00117 ± 0.004
